Measurements taken from PubChem BioAssay AID330 (DTP/NCI, 2004).
The list is a part of this screen's results and no random one: it is rich in T/C values a quarter to a half above the control, in often repeated tests (any T/C) and in doses without a T/C. Further doses and runs are listed elsewhere. T/C gives the treated animals as a percentage of the vehicle group. Some doses have a count of surviving animals in place of a T/C: the source holds a T/C of zero for them, seemingly a mark for toxic or unscored doses. Some doses without a T/C left all or most animals alive at the check, yet need not have been tolerated: survival well below the control is almost never listed, so the zero probably covers shortened survival too. Survivors were counted at the toxicity check, usually on the fifth day, unless a day is given; later deaths do not show. Schedule codes are those of the source, taken here to give the interval after Q, in days (D) or hours (H), and the number of doses after X. Some entries hold several experiments; the values are given in rising order. For survival time, this PubChem deposit counts one and a half times the control or more as active, and values a quarter to a half above the control carry no call in these data; other NCI protocols may use other cut-offs. Some T/C values carry the count of animals alive at the toxicity check (mostly the fifth day); where none is given, no animal had died by that day. Additions like (4×) say how often a value occurs here.

System: P388 leukemia ip, CD2F1 mice, survival T/C
Assay: NCI In Vivo Anticancer Drug Screen. Data for tumor model P388 Leukemia (intraperitoneal) in CD2F1 (CDF1) mice
Settings: T/C endpoint: median survival time, vehicle: saline with Tween-80, higher T/C = longer survival
[1] = dose: 50.0 mg/kg/injection, schedule: Q01DX001 (ip)
[2] = dose: 50.0 mg/kg/injection, schedule: Q01DX009 (ip)
[3] = dose: 50.0 mg/kg/injection, schedule: Q04DX002 (ip)
[4] = dose: 50.0 mg/kg/injection, schedule: Q04DX003 (ip)
[5] = dose: 100.0 mg/kg/injection, schedule: Q01DX001 (ip)
[6] = dose: 100.0 mg/kg/injection, schedule: Q01DX009 (ip)
[7] = dose: 100.0 mg/kg/injection, schedule: Q04DX003 (ip)
[8] = dose: 200.0 mg/kg/injection, schedule: Q01DX001 (ip)
[9] = dose: 200.0 mg/kg/injection, schedule: Q01DX005 (ip)
[10] = dose: 200.0 mg/kg/injection, schedule: Q01DX009 (ip)
[11] = dose: 200.0 mg/kg/injection, schedule: Q04DX002 (ip)
[12] = dose: 200.0 mg/kg/injection, schedule: Q04DX003 (ip)
[13] = dose: 400.0 mg/kg/injection, schedule: Q01DX001 (ip)
[14] = dose: 400.0 mg/kg/injection, schedule: Q01DX005 (ip)
[15] = dose: 400.0 mg/kg/injection, schedule: Q01DX009 (ip)
[16] = dose: 400.0 mg/kg/injection, schedule: Q04DX002 (ip)
[17] = dose: 400.0 mg/kg/injection, schedule: Q04DX003 (ip)

CC/C(=C(/CC)c1ccc(O)cc1)c1ccc(O)cc1
T/C [1]: 90, 91, 92 (2×), 92 [2 of 3 alive], 95 (2×), 96, 97 (4×), 98 (3×), 99, 100, 100 [5 of 6 alive], 101, 102, 103, 104, 105 (3×), 109 (2×), 110 (2×), 111 % of control
survivor count [1]: 3 of 3 and 6 of 6
T/C (dose: 50.0 mg/kg/injection, schedule: Q01DX005 (ip)): 87, 90 [5 of 6 alive], 91, 93 (2×), 94, 97, 98 (2×), 99 (2×), 100 (4×), 101 (2×), 103, 104 (2×), 105 (2×), 106, 107 (2×), 108, 109 (2×), 110, 111, 115, 117 (2×), 121, 122, 129 % of control
T/C [2]: 91, 92, 95, 97, 98 (3×), 99 (3×), 101, 102 (2×), 105 (3×), 106, 107, 108 (2×), 111 (2×), 112, 113, 114, 116, 117, 119, 124, 128, 131 % of control
survivor count [2]: 3 of 3 and 6 of 6
T/C [3]: 87, 88, 92 (2×), 93, 94, 95 (3×), 99 (3×), 100 (7×), 101, 102 (2×), 103 (2×), 104, 105, 106 (3×), 107, 108, 112, 114, 118 % of control
survivor count [3]: 6 of 6
T/C [4]: 86, 89, 90, 91 (2×), 94 (2×), 95, 96 (2×), 97 (2×), 98, 99 (4×), 100 (6×), 101 (2×), 101 [5 of 6 alive], 102, 103, 103 [5 of 6 alive], 104, 105 (2×), 106, 109 % of control
survivor count [4]: 3 of 3 and 6 of 6
T/C [5]: 87, 87 [5 of 6 alive], 88, 91, 91 [4 of 6 alive], 92, 93, 94, 94 [5 of 6 alive], 95, 96 (2×), 97 (2×), 98 (2×), 99 (2×), 100 (3×), 101 (3×), 102, 104 (2×), 105, 106, 107, 109 % of control
survivor count [5]: 6 of 6
T/C (dose: 100.0 mg/kg/injection, schedule: Q01DX005 (ip)): 88, 89, 90, 92, 93 (2×), 94, 95 [5 of 6 alive], 96, 97 (2×), 98 (2×), 100 (2×), 101 (3×), 101 [5 of 6 alive], 102 (3×), 104, 105, 108, 110 (2×), 111, 111 [2 of 3 alive], 112 (3×), 112 [2 of 3 alive], 113, 117, 124 % of control
T/C [6]: 93 (2×), 95 (3×), 96 (2×), 98, 100 (3×), 102 (3×), 103 (2×), 104 (2×), 105 [2 of 3 alive], 106, 107, 108 (4×), 110, 113, 119, 121, 122, 122 [5 of 6 alive], 123 % of control
survivor count [6]: 3 of 3 and 6 of 6
T/C (dose: 100.0 mg/kg/injection, schedule: Q04DX002 (ip)): 87, 90, 91, 92 (3×), 93 (2×), 93 [5 of 6 alive], 94 (2×), 95, 98 (2×), 99 (2×), 100 (4×), 101, 102 (3×), 104 (3×), 106 (2×), 107, 109, 110, 112, 114, 116 % of control
T/C [7]: 86, 87 [5 of 6 alive], 88, 91, 92, 94, 95 (2×), 96 (2×), 97, 98 (2×), 99 (2×), 100 (3×), 100 [2 of 3 alive], 101 (4×), 102 (2×), 103 (2×), 104 (3×), 105 (2×), 110, 118, 122 % of control
survivor count [7]: 3 of 3 and 6 of 6
T/C [8]: 89 [5 of 6 alive], 90, 90 [5 of 6 alive], 91, 91 [5 of 6 alive] (2×), 92 (2×), 93 [2 of 3 alive], 93 [5 of 6 alive], 96 (2×), 97, 98, 99, 99 [2 of 3 alive], 100 (10×), 103, 105, 108, 115, 115 % of control [2 of 3 alive]
survivor count [8]: 6 of 6
T/C [9]: 86 [2 of 3 alive], 87, 89 (2×), 92 [5 of 6 alive], 93 (2×), 95 [4 of 6 alive], 96, 96 [2 of 3 alive], 97 [5 of 6 alive], 98, 98 [5 of 6 alive], 99, 99 [5 of 6 alive], 101 (3×), 103 [5 of 6 alive], 104, 105, 106 (2×), 107, 110 (2×), 111 (3×), 112, 112 [2 of 3 alive], 117, 118, 127 % of control
survivor count [9]: 3 of 6 and 2 of 3
T/C [10]: 87 [5 of 6 alive], 90 [2 of 3 alive], 91 [4 of 6 alive], 92, 93 (2×), 93 [5 of 6 alive], 97 [2 of 3 alive], 98, 99, 99 [2 of 3 alive], 100 (3×), 101 [4 of 6 alive], 101 [5 of 6 alive], 104, 105, 106 [2 of 3 alive], 107 [5 of 6 alive], 108 [5 of 6 alive], 109, 113, 113 [5 of 6 alive], 117 (2×), 117 [5 of 6 alive], 122, 140 % of control
survivor count [10]: 2 of 3 and 6 of 6
T/C [11]: 86, 89, 90 (2×), 93 (3×), 94, 94 [5 of 6 alive], 95 (3×), 95 [5 of 6 alive], 97, 97 [2 of 3 alive], 99, 99 [5 of 6 alive], 100 (4×), 100 [2 of 3 alive], 101, 104 (2×), 105 (2×), 107, 112, 114 [5 of 6 alive], 117, 120, 125 % of control
survivor count [11]: 1 of 3 and 3 of 3
T/C [12]: 86, 88, 88 [4 of 6 alive], 89, 90 (2×), 91, 93, 94, 94 [5 of 6 alive], 95, 96 (2×), 97, 98 (2×), 99 (2×), 100 (5×), 101, 102 (2×), 105, 107, 108 [2 of 3 alive], 109, 115, 128 % of control
survivor count [12]: 2 of 3, 5 of 6, 3 of 3, 6 of 6
T/C [13]: 92 [4 of 6 alive], 92 [5 of 6 alive], 95 [2 of 3 alive], 95 [5 of 6 alive], 96, 97 [5 of 6 alive], 98, 98 [2 of 3 alive], 98 [4 of 6 alive], 99, 100 [5 of 6 alive] (2×), 101, 102, 102 [4 of 6 alive], 109, 113 (2×), 115 % of control [2 of 3 alive]
survivor count [13]: 0 of 3, 0 of 6, 1 of 3, 2 of 6, 3 of 6, 4 of 6
T/C [14]: 94, 97, 97 [5 of 6 alive], 100, 104 [5 of 6 alive], 106 [5 of 6 alive], 107 [2 of 3 alive], 113 [5 of 6 alive], 117 % of control [2 of 3 alive]
survivor count [14]: 0 of 3, 0 of 6, 1 of 6, 1 of 3, 2 of 6, 3 of 6
T/C [15]: 89, 89 [2 of 3 alive], 98, 105 [5 of 6 alive], 107, 108 % of control [5 of 6 alive]
survivor count [15]: 0 of 3, 0 of 6, 1 of 6, 1 of 3, 2 of 6, 3 of 6, 2 of 3, 5 of 6
T/C [16]: 88 [2 of 3 alive], 90 [2 of 3 alive] (2×), 91 [5 of 6 alive], 93 [2 of 3 alive], 97 [2 of 3 alive] (2×), 99, 99 [5 of 6 alive], 100 (3×), 100 [2 of 3 alive], 100 [4 of 6 alive], 100 [5 of 6 alive] (2×), 102, 103, 105 [4 of 6 alive], 106 % of control [4 of 6 alive]
survivor count [16]: 0 of 3, 0 of 6, 1 of 6, 1 of 3, 2 of 6, 3 of 6, 2 of 3, 4 of 6
T/C [17]: 86 [2 of 3 alive], 87 [5 of 6 alive], 88, 90 [5 of 6 alive], 91 [4 of 6 alive], 94, 95, 96 [2 of 3 alive], 98, 100 (3×), 101 [5 of 6 alive] (2×), 106 [2 of 3 alive], 108, 119 % of control [2 of 3 alive]
survivor count [17]: 0 of 3, 1 of 6, 1 of 3, 2 of 6, 3 of 6, 2 of 3, 4 of 6, 3 of 3, 6 of 6
